Laboratory results from article doi:10.1101/502831.
No constants are given. Whether binding was seen depends on the method and setting. Binding seen in cells or lysates may run through a third protein. A result given as binding can be weak or reduced; the word gives no strength.

Target: Glutathione S-transferase-tagged LsTUB (GST-TUB) (Laodelphax striatellus)
Test: pull-down

B1: Rice stripe virus nonstructural protein 3 (NS3) in extracts of viruliferous SBPH (protein, UniProt P26658 1-211)
chain: MNVFTSSVGSVEFDHPLLLENDLTSLSINCDDVHCSSRALCYIYDIHSSRHPSIDEHQFLRLLHGPDDAVTLGSFLKTLIWILSHDKNLPEEYRLPTIMMSSSYVKFFTEVKPRPPSTNCWTCRMSKDNLPFTVPSVKGFPPDAELYIVPISDHDGKPVKFDNRKTLYRSPSKKRHKYVISSDKPPLSARYVKYVDSSALESLPGSSPAVL
For B1, the binding was “binds”.
